Measured values taken from patent US20170088616A1.
Results are given in words; binding and its absence hold for the method and conditions named. Some binding calls cover weakened binding; strength is not graded here.

By UniProt entry, the sequences of proteins in these tests, tags left out. Where a name states a change or a piece, a line headed by the entry shows the natural chain unless it says otherwise.
UniProt Q8TDQ0: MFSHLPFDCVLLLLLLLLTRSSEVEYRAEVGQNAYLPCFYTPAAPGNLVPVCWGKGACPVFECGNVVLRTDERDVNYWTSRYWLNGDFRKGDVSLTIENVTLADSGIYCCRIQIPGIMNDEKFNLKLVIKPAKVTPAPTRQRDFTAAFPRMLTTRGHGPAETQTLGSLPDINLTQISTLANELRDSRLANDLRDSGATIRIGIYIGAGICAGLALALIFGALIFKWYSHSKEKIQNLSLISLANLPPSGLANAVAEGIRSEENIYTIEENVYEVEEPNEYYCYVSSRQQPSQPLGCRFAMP

What was measured:
[1] = target: Mucin chimeraTIM-3 (human TIM-3 with the mucin domain substituted for mouse TIM-3) (human/mouse chimera); test: flow cytometry, transfected HEK293F cells
[2] = target: human TIM-3 (human) (UniProt Q8TDQ0); test: flow cytometry, transfected HEK293F cells

B1: antibody 4177 (antibody, human IgG1, V domains shown)
VH: QVQLQESGPGLVKPSETLSLTCTVSGGSISSYYWSWIRQPPGKGLEWIGYIFHSGSTNYNPSLKSRVTISVDTSKNQFSLKLSSVTAADTAVYYCARDGEYFDMLTGFDYWGQGTLVTVSS
VL: DIQMTQSPSSLSASVGDRVTITCRASQGISSWLAWYQQKPEKAPKSLIYAASSLQSGVPSRFSGSGSGTDFTLTISSLQPEDFATYYCQQYNSYPRTFGQGTKVEIK
binding [1]: binds | binding [2]: binds
